This is an account of results in patent publication US20160152686A1.

Chains of the proteins cited; added tags and fusions are not shown. Residues count along the entry.
UniProt Q8NBP7, residues 31-692: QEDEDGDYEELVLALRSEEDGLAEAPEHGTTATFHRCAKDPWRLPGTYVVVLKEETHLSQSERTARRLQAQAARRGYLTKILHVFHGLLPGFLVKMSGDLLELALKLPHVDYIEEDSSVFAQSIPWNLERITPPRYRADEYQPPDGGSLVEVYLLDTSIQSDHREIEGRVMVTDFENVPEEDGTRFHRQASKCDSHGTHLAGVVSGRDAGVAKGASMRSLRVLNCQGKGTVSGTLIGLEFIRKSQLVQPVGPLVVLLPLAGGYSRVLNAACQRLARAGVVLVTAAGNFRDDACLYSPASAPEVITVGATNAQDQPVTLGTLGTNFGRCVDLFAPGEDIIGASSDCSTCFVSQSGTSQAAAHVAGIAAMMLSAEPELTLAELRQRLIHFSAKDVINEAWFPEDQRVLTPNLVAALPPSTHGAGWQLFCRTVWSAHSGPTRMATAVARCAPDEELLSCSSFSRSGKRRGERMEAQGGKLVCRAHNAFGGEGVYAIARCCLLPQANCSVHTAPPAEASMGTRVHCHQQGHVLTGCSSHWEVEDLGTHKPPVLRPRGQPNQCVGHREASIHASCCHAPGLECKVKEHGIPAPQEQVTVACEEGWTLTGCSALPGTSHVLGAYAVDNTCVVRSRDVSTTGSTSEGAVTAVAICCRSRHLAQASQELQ

These are yes or no findings as the source states them, for the method shown. Some results given as binding are weak or reduced against the parent protein; the word gives no strength. Sequences can lack the tags named with a protein.

The target of the assay is recombinant human PCSK9 expressed in baculovirus (human) (UniProt Q8NBP7). The assay is described as shown in Example 2 (PCSK9:EGFA FRET assay).

B1: PCSK9 adnectin-ABD fusion protein (PCSK9 adnectin-(GS)3-ABD-His6) (designed binder)
chain: MGVSDVPRDLEVVAATPTSLLISWVPPSDDYGYYRITYGETGGNSPVQEFTVPIGKGTATISGLKPGVDYTITVYAVEFPWPHAGYYHRPISINYRTGSGSGSQHDEAVDANSLAEAKVLANRELDKYGVSDYYKNLINNAKTVEGVKALIDEILAALPHHHHHH
Take B1: the binding result is on record as “binds”.
